Source: article PMC6479050
No constants are given. Whether binding was seen depends on the method and setting. Binding seen in cells or lysates may run through a third protein. A yes stands for co-enrichment or nearness to the bait. Other partners may have been found. No binding means not detected with the bait.

Sequences of proteins named here, by UniProt entry; tags and fusion partners are left off.
UniProt Q9H8M2: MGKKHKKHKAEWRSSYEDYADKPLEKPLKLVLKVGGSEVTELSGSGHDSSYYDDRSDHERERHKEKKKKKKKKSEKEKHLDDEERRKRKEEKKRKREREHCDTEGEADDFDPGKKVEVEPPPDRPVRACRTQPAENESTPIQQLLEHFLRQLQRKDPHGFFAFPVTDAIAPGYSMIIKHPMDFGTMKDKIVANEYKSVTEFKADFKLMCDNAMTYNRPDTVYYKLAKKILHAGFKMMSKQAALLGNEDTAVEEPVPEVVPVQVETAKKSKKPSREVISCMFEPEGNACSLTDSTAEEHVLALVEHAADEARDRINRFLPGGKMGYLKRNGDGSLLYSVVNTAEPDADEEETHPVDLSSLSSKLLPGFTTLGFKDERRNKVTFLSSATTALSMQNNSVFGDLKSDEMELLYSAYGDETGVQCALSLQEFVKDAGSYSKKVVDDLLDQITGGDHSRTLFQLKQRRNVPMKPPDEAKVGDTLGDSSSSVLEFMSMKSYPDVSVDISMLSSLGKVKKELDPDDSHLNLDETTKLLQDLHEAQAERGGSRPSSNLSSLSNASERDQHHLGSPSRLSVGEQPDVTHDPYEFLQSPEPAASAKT
UniProt Q86U86: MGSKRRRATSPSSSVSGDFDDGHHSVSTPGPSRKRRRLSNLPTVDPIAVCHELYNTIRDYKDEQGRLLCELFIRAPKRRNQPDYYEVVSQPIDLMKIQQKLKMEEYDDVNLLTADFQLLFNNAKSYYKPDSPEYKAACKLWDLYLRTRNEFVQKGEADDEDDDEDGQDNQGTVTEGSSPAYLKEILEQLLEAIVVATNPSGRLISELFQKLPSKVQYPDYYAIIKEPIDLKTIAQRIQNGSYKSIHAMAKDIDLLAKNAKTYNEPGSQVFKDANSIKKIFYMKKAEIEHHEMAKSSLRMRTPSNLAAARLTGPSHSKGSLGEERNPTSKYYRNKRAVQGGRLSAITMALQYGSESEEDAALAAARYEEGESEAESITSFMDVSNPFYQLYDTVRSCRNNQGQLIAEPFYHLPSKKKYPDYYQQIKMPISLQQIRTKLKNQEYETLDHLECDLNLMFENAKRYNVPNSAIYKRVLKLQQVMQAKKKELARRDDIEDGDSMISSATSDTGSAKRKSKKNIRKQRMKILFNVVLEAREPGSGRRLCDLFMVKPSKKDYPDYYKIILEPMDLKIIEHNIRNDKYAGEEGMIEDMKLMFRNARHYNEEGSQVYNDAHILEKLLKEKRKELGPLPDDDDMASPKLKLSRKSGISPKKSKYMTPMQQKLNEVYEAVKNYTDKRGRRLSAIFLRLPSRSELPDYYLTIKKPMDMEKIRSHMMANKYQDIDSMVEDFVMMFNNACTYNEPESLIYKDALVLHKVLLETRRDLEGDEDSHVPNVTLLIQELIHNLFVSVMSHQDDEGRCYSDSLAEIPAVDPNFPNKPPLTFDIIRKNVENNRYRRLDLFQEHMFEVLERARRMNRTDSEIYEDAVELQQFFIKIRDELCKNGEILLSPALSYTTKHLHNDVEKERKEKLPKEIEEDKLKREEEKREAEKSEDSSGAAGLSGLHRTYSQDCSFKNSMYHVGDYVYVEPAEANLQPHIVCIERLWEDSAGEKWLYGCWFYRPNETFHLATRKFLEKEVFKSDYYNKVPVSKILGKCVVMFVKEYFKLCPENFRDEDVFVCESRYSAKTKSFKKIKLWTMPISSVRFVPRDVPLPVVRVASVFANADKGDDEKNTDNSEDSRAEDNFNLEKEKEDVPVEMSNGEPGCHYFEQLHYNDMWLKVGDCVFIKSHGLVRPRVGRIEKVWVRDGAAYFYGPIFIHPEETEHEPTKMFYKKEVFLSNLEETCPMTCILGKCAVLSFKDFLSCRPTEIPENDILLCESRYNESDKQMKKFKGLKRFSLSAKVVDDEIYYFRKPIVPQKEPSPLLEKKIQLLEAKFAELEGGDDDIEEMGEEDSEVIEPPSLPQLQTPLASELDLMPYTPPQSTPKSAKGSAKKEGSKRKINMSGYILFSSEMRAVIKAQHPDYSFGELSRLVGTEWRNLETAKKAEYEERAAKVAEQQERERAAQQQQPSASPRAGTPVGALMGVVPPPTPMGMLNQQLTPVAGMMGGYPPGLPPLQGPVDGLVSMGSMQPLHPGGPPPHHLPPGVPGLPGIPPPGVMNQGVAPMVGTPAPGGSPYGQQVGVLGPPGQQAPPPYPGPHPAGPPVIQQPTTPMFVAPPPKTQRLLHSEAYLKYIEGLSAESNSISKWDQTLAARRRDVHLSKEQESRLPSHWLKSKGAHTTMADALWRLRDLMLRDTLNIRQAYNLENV
UniProt Q9NPI1: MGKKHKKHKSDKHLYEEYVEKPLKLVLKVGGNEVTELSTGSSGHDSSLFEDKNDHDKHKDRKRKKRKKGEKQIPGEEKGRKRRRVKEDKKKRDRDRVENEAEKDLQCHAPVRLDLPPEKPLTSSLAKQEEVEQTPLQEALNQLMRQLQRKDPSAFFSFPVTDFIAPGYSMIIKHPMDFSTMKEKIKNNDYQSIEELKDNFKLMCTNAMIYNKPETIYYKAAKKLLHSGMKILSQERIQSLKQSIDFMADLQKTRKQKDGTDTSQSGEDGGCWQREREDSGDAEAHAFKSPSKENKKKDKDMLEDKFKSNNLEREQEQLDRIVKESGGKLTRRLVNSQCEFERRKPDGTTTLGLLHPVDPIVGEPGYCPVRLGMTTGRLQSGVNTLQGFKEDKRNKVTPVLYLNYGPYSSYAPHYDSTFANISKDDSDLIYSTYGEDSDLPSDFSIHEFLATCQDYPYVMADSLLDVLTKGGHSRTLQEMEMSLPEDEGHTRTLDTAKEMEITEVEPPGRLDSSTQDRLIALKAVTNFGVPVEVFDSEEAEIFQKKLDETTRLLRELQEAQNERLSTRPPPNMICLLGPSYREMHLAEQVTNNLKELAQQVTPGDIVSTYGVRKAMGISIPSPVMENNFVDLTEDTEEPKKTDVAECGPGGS
UniProt Q9NZM4: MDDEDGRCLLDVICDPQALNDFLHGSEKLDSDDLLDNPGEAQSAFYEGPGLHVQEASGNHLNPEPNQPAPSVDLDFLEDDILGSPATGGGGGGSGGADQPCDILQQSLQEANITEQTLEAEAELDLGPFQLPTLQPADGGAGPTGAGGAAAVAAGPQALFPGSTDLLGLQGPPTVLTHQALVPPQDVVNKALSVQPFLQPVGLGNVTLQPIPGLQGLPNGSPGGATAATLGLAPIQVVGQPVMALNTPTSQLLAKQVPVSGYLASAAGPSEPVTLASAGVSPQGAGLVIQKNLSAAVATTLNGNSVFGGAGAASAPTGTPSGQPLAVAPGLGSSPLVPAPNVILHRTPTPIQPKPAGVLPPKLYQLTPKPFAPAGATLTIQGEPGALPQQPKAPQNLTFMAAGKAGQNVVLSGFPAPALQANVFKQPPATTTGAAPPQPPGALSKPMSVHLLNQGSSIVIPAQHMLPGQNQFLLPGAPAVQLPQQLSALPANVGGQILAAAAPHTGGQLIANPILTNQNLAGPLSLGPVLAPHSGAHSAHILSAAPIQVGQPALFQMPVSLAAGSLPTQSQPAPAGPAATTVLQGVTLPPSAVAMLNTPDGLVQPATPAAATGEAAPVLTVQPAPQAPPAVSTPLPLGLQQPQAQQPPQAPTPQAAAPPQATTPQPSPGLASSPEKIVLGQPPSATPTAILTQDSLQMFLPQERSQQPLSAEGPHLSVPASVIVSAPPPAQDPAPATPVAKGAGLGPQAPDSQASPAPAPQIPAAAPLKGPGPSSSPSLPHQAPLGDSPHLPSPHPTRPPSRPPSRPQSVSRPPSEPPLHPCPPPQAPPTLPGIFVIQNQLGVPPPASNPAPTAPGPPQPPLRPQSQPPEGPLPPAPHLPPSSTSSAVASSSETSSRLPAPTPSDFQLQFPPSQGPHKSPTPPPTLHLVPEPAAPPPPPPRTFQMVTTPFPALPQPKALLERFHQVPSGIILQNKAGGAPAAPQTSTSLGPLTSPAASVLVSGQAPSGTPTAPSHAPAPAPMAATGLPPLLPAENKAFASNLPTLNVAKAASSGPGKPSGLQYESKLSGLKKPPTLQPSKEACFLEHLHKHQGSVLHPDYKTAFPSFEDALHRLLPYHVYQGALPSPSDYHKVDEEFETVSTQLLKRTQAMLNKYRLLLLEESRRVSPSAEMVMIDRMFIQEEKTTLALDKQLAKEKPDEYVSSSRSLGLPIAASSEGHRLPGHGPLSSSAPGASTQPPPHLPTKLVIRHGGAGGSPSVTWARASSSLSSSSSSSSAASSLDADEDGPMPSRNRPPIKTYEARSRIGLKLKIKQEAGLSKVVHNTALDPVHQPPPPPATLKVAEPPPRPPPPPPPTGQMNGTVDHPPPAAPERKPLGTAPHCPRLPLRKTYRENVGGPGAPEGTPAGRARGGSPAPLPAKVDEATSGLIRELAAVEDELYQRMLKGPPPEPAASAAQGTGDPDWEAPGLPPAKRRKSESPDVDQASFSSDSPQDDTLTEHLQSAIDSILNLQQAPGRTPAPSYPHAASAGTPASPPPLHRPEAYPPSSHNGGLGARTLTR
UniProt P51532: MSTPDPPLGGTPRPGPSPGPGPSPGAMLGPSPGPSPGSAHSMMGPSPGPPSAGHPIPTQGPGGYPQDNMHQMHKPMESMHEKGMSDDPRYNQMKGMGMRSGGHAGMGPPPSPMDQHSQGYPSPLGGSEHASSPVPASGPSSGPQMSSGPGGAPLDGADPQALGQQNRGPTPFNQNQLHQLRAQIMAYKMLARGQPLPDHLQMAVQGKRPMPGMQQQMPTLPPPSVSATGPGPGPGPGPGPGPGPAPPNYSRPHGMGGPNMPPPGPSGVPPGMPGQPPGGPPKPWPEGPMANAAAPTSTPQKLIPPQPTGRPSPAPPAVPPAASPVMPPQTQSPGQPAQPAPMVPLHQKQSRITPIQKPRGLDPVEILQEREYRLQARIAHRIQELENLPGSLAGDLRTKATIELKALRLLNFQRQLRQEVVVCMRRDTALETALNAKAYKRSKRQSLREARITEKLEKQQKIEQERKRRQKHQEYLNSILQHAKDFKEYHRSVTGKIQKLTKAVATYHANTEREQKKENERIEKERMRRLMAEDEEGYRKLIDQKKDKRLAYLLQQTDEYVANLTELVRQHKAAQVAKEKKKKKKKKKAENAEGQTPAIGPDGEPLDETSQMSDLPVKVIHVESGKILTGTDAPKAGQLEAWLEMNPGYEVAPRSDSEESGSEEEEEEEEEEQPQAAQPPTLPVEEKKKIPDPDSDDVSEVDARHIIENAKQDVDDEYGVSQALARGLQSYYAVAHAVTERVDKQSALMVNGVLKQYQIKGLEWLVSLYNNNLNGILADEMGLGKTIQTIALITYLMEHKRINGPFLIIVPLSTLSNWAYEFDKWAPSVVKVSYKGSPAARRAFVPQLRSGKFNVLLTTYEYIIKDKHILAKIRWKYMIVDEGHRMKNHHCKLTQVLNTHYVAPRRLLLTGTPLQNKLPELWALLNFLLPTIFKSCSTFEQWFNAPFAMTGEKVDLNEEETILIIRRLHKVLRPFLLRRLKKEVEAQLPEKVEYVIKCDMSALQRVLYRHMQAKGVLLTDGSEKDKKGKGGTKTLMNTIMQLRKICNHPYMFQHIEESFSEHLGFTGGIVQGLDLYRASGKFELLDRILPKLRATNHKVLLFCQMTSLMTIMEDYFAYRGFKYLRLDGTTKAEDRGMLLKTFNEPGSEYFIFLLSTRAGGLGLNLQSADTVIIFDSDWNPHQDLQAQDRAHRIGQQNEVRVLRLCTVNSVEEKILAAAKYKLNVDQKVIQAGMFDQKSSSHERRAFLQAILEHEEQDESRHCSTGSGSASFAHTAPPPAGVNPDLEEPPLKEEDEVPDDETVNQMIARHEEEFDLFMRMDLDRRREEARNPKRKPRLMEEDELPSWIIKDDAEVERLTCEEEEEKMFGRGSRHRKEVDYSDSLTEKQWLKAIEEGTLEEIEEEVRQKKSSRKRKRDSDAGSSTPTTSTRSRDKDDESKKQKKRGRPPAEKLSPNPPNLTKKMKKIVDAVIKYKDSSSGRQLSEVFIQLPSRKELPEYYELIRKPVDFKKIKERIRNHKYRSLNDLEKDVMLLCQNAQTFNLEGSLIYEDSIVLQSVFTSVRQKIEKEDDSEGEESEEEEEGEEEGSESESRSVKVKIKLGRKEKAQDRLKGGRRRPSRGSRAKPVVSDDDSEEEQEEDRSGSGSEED
UniProt Q12824: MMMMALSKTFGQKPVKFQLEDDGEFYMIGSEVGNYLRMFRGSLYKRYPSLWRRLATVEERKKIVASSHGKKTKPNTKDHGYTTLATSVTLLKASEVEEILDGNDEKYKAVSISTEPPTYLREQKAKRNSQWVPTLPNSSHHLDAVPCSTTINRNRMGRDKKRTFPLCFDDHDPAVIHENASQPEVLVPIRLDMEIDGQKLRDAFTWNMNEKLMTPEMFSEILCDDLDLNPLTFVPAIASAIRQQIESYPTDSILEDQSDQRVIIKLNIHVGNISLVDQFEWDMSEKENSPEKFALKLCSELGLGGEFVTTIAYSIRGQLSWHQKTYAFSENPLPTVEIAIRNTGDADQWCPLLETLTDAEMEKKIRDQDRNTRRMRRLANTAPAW

How the values were obtained:
[1] = target: BRD9 with a C-terminal HA tag, exogenously expressed in G401 (UniProt Q9H8M2); test: affinity purification with mass spectrometry; HA IP of exogenously expressed BRD9 with a C-terminal HA tag in G401 cells, mass spectrometry
[2] = target: Bromodomain-containing protein 9 (BRD9) (human (endogenous in G401)) (UniProt Q9H8M2); test: affinity purification with mass spectrometry; IP with antibodies to endogenous BRD9, ARID1A or PBRM1 from nuclear extract diluted to 150 mM salt, overnight at 4 °C, Protein G Dynabeads, RIPA washes, whole gel lane to mass spectrometry; four RT cell lines, three SMARCB1-WT cell lines, G401 without or with SMARCB1 re-expression
[3] = target: ARID1A (human (endogenous in G401)) (UniProt O14497); test: as above
[4] = target: PBRM1 (human (endogenous in G401)) (UniProt Q86U86); test: as above

Substance | binding [1] | binding [2] | binding [3] | binding [4]
ACTL6A (BAF53A) (from UniProt O96019 1-429) | binds | binds | – | –
BRD7 (from UniProt Q9NPI1 1-651) | no binding | no binding | – | –
GLTSCR1 (also known as BICRA, BRD4 Interacting Chromatin-Remodeling Complex Associated Protein) (from UniProt Q9NZM4 1-1560) | binds | binds | no binding | no binding
PBRM1 (from UniProt Q86U86 1-1689) | no binding | no binding | – | –
SMARCC1 (BAF155) (from UniProt Q92922 1-1105) | binds | binds | – | –
SMARCC2 (BAF170) (from UniProt Q8TAQ2 1-1214) | no binding | no binding | – | –
SMARCD1 (BAF60A) (from UniProt Q96GM5 1-515) | binds | binds | – | –

More lines, now with the values ahead:

binding [1] | binding [2] | binding [3] | binding [4] | Substance
– | – | no binding | no binding | Bromodomain-containing protein 9 (BRD9) (from UniProt Q9H8M2 1-597)
binds | binds | – | – | SMARCA2 (BRM) (from UniProt P51531 1-1590)
binds | binds | – | – | SMARCA4 (BRG1) (from UniProt P51532 1-1647)
– | no binding | – | – | SMARCB1 (also known as SNF5, INI1, and BAF47), re-expressed in G401 (from UniProt Q12824 1-385)
no binding | no binding | – | – | SMARCE1 (BAF57) (from UniProt Q969G3 1-411)
